Laboratory results as given in paper PMC4336329 (PLoS ONE, 2015).
The strong results were mostly taken out for another list; the other results follow. Effects have a minus sign here.

By UniProt entry, the sequences of proteins in these tests, tags left out. Where a name states a change or a piece, a line headed by the entry shows the natural chain unless it says otherwise.
UniProt Q12809: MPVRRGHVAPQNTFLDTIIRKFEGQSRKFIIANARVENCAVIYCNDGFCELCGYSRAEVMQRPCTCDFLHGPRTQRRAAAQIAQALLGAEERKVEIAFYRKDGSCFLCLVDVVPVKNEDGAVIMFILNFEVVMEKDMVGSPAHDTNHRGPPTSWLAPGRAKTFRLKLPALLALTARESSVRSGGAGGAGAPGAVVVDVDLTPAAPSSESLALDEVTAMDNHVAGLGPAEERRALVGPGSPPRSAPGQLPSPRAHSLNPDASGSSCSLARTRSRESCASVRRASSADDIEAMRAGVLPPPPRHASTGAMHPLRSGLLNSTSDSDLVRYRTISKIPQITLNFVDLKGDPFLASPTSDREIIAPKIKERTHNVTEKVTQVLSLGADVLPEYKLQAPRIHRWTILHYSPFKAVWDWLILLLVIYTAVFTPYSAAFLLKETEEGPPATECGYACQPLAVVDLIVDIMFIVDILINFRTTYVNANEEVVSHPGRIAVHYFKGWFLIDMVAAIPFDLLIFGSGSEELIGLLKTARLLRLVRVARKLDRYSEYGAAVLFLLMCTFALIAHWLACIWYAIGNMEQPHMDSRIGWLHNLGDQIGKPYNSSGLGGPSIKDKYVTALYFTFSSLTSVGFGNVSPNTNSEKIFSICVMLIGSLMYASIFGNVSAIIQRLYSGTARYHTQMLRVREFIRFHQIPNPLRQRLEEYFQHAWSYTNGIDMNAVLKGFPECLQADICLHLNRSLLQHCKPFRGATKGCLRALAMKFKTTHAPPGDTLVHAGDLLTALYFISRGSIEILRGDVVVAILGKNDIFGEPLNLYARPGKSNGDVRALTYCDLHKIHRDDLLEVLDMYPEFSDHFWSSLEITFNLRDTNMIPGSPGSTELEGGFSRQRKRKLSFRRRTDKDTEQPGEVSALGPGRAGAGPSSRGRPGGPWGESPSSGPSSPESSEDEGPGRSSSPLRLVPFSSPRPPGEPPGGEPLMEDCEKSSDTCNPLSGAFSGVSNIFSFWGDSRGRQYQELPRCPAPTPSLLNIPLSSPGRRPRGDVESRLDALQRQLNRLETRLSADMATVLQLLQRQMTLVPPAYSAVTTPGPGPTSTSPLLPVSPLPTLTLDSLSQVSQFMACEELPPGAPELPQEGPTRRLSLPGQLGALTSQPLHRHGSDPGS

What was measured:
[1] = target: T1, human ether-à-go-go-related gene (hERG) potassium channel (human, UniProt Q12809); assay: primary screen, population patch clamp on CHO cells stably expressing hERG; higher = less effect of the substance
Method: (§1) Briefly, Chinese hamster ovary (CHO) cells stably expressing the hERG channel were dislodged from tissue culture flasks and dispensed into PPC plates. […] During the recording, background leak currents were estimated by a 100 ms step to -80 mV from an initial holding potential of -70 mV and subtracted from the subsequent current measurement. The campaign was conducted in two phases using slight differences in recording protocol. In the first phase, the initial voltage pulse used a 100 ms step to -30 mV from a holding potential of -70 mV, a 2 s conditioning step to +25 mV, and a 2 s test step to -30 mV. During the second phase of the screen, the potential during the conditioning step was raised to +45 mV. In both phases of the campaign, a secondary voltage pulse was applied using the same parameters as the second phase initial pulse. The initial and secondary pulses were applied in the absence of compound, and upon application of 1 μM and 10 μM test concentrations. Small molecule effects on hERG current density were quantified by measuring the peak tail current during the secondary voltage pulse prior to compound application and dividing by the amplitude following each test concentration.

[2] = target: T1, human ether-à-go-go-related gene (hERG) potassium channel; assay: as above; remark: listed apart in the source
Method: as §1, with “Small molecule effects on hERG current density were quantified by measuring the peak tail current during the secondary voltage pulse prior to compound application and dividing by the amplitude following each test concentration.” left out
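Wherever hERG current change (%, negative = inhibition) at 10uM is given: peak tail current of the secondary pulse compared with the same well before compound.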

## CCC(C)(CN(C)C)OC(=O)c1ccccc1.Cl (centres unmarked)
[1]
  hERG current change (%, negative = inhibition) at 1uM: 8.68%
[2]
  hERG current change (%, negative = inhibition) at 10uM: 4.72%
